{"source": "paper PMC10216605", "about": "“Developing In Vitro Models to Define the Role of Direct Mitochondrial Toxicity in Frequently Reported Drug-Induced Rhabdomyolysis” (Biomedicines, 2023)", "key": {"[1]": {"tested_on": "primary human skeletal muscle-derived cells (HSKMDC)", "assay": "cells", "assay_type": "cell-based", "details": "2 h exposure; for IC50-LDH gal/ IC50-ATP al: galactose media; for IC50: Homo sapiens, Myotube", "method": "HSKMDC myoblasts were collected by trypsinisation using trypsin-EDTA (0.05%) upon reaching 50% confluence and seeded into collagen-coated wells, at a density of 20,000 cells/100 μL/well (96 well plates) and 25,000 cells/100 μL/well (XF 96-well cell culture microplates). After 24 h, the cells were washed twice with 1× PBS (-/-), and growth media were replaced with differentiation medium containing DMEM low-glucose media (glucose 5 mM), L-glutamine (4 mM), sodium pyruvate (1 mM) supplemented with 2% (v/v) horse serum, and (10 nM) human insulin. The medium was refreshed every 48 h for 5 days.\nOn the day of the assay, the media on the differentiated myotubes were replaced with either serum-free high-glucose (DMEM, 25 mM of glucose, 4 mM of L-glutamine, 1 mM of sodium pyruvate, and 5 mM of HEPES) or serum-free galactose (DMEM, 10 mM of galactose, 6 mM of L-glutamine, 1 mM of sodium pyruvate, and 5 mM of HEPES) media (100 µL) for 2 h (37 °C, 5% CO2). The glucose and galactose media were removed and replaced with drug-dosing solutions in either glucose or galactose media as appropriate, before incubation (2 h, 37 °C, 5% CO2). […] Vehicle control was included in each experiment.\nCytotoxicity was detected using a lactate dehydrogenase (LDH) assay kit. Briefly, according to the manufacturers’ instructions, 25 µL of the supernatant and 10 µL of cell lysate were incubated with 50 µL of LDH reagent for 30 min in the dark. Samples were read at 490 nm using a plate reader."}, "[2]": {"assay": "FAERS analysis of reported rhabdomyolysis cases per suspect drug", "details": "rhabdomyolysis with suspected drug vs all other drugs in FAERS"}}, "note": "Like-named read-outs stand apart in the source and are kept apart here."}
{"smiles": "CC(C)OC(=O)C(C)(C)Oc1ccc(C(=O)c2ccc(Cl)cc2)cc1", "note": "[Fenofibrate]", "values": [{"measurement": "IC50-LDH gal/ IC50-ATP al", "setting": "[1]", "result": ">30.9"}, {"measurement": "IC50-LDH gal/ IC50-ATP al", "setting": "[1]; listed as fenofibrate", "result": "≥ 2"}, {"measurement": "IC50", "setting": "[1]; galactose serum-free media, read-out: LDH IC50 Galactose", "result": "> 300", "unit": "µM"}, {"measurement": "IC50", "setting": "[1]; glucose serum-free media, read-out: LDH IC50 Glucose", "result": "> 300", "unit": "µM"}, {"measurement": "ROR (reported odds ratio)", "setting": "[2]", "result": 3.8}]}
